Out of some 330,000 compounds screened, about 7,700 (2.3%) were called active. Inconclusive results, whose numbers are uncertain, are shown with a selection of clear calls. Calls follow the shape of the dose curve; as a rule, active = well fitted inhibition curve with a large enough effect; inconclusive = small, poorly fitted or top-dose-only effect, or effect the other way; inactive = flat fitted curve, though single readings scatter. Potencies of inconclusive entries are doubtful fits and often do not repeat.
experiment: qHTS screen for small molecules that inhibit ELG1-dependent DNA repair in human embryonic kidney (HEK293T) cells expressing luciferase-tagged ELG1; conditions: HEK293T ELG1-luciferase reporter, luminescence, 16 h, DNA damage induced by 5-fluorouridine; activity change, negative = inhibition: at 46.1 µM (top of the series); also: nearly all actives have a fitted effect of over 55% in size
Procedure, shortened: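 Reporter activity after DNA damage by 5-fluorouridine is monitored. Compound-treated cells incubate 16 hr at 37 °C, then ONE-Glo is added for 30 min before luminescence reading.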
% is scaled to controls: 0 for no effect and ±100 for the full control effect; potency is read from the fitted curve at half-maximal effect.

Structure (SMILES)	Potency	activity change, negative = inhibition
O=C1c2ccccc2C(=O)c2c1cccc2N1CCN(CCO)CC1	inconclusive: 29.1 µM [activator, single point]	–
CCCN(CC(=O)Nc1ccccc1OC)C(=O)c1ccc2[nH]c3c(c2c1)CC(C)CC3 (stereo not given)	inconclusive: 16.4 µM [inhibitor, partial curve]	–
Cc1ccc(/C=N/Nc2nnc(Cc3ccccc3)c(=O)[nH]2)o1	–	inactive: 0.459%
O=[N+]([O-])c1ccc(N/N=C2\CC3CC=CC23)c([N+](=O)[O-])c1 (stereo not given)	inconclusive: 16.4 µM [inhibitor, partial curve, poor fit]	–
O=C(Nc1ccc2oc(-c3ccccc3F)nc2c1)c1ccco1	inconclusive: 4.61 µM [activator, partial curve]	–
CC(C)(C)S(=O)(=O)c1cnc2c(-c3ccsc3)cnn2c1N	inconclusive: 6.51 µM [activator, partial curve]	–
CN(C(=O)CSc1nc2ccccc2n1C)C1CCS(=O)(=O)C1 (stereo not given)	inconclusive: 32.6 µM [activator, partial curve, poor fit]	–
COc1cc(NC(=O)c2ccccc2F)c(OC)cc1NC(=O)CN1CCCCC1	inconclusive: 29.1 µM [inhibitor, single point]	–
CCc1ccc(-c2ccc(SCC(=O)Nc3nnc(C)s3)nn2)cc1	inconclusive: 4.11 µM [activator, full curve]	–
CCO[C@@H]1OC(C(N)=O)=C[C@H](c2coc3ccccc3c2=O)[C@H]1CCCO	–	inactive: 9.94%
O=C(Nc1nc2ccccc2n1CCN1CCCC1)C1CCCCC1	–	inactive: 14.3%
CCOC(=O)c1c(C)n(C)c2ccc(OC)c(NC(=O)CN3CCN(Cc4ccccc4)CC3)c12	inconclusive: 3.66 µM [inhibitor, full curve]	–
Cc1cc(C)c(NC(=O)CSc2nc3c(c(=O)n2C)SC(C)C3)c(C)c1 (stereo not given)	inconclusive: 20.6 µM [inhibitor, single point]	–
COc1ccc(OC)c2nc(-c3cccnc3)ccc12	inconclusive: 18.3 µM [activator, single point]	–
CN(C)c1nc(SCCOC(=O)c2ccccc2)nc(N(C)C)n1	–	inactive: 5.61%
O=C(CSc1nnc(Cn2nnc3ccccc32)o1)Nc1ccc(Cl)cc1	–	inactive: -7.95%
COc1cc2ccccc2cc1C(=O)N1CCN(c2ccccc2O)CC1	–	inactive: -15.1%
COCCn1c(C(F)(F)F)ccc(NC(=O)c2ccccc2)c1=O	inconclusive: 20.6 µM [activator, partial curve]	–
O=C(Nc1cc2c3c(c1)CC(=O)N3CCC2)c1ccc(F)cc1	inconclusive: 16.4 µM [activator, single point]	–
O=C(c1ccco1)N1N=C(c2cccs2)CC1c1ccccc1O (stereo not given)	–	inactive: -19.9%
Cc1cccc(-c2cccc(NC(=O)C3CCCN(C(=O)c4csc(C)n4)C3)c2)c1 (stereo not given)	inconclusive: 7.3 µM [inhibitor, partial curve]	–
Cc1ccc2nc(C3CCN(CC(=O)Nc4ccc5c(c4)OCCO5)CC3)[nH]c2c1	inconclusive: 29.1 µM [inhibitor, single point]	–

Structure (SMILES)	Potency	activity change, negative = inhibition
COc1ccc(CCNC(=O)C2CCCN(Cc3nc(-c4cccc(Cl)c4)oc3C)C2)cc1OC (stereo not given)	active: 10 µM	–
CC(C)Nc1ncnc2c1cnn2-c1ccccc1	inconclusive: 0.731 µM [activator, full curve]	–
CC1(C)CC(=O)C2=C(C1)OC1=C(C(=O)CC(C)(C)C1)C2c1ccc(O)c([N+](=O)[O-])c1	inconclusive: 29.1 µM [activator, single point]	–
Cc1ccc(SCC(=O)N2CCc3ccccc32)cc1	inconclusive: 20.6 µM [activator, partial curve]	–
Cc1ccc(-n2nnnc2SCC(=O)c2c(N)n(C3CC3)c(=O)[nH]c2=O)c(C)c1	inconclusive: 16.4 µM [inhibitor, partial curve]	–
COc1ccc(OC)c(NC(=O)C2CCN(S(=O)(=O)c3ccc4c(c3)CC(C)N4C(C)=O)CC2)c1 (stereo not given)	inconclusive: 14.6 µM [inhibitor, partial curve]	–
O=C(CSc1ccc(F)cc1)Nc1ccccc1Br	inconclusive: 23.1 µM [activator, single point]	–
COc1ccc(C)cc1-n1nnnc1SCC(=O)NC(=O)NCc1ccco1	inconclusive: 29.1 µM [inhibitor, single point]	–
COc1ccc(NS(=O)(=O)c2cccc(NC(=O)CCC(=O)c3ccc(Cl)cc3)c2)cc1	inconclusive: 14.6 µM [inhibitor, partial curve, poor fit]	–
Cc1c(N2C(=O)CSC2=S)c(=O)n(-c2ccccc2)n1C	inconclusive: 23.1 µM [activator, single point]	–
CCCOC(=O)c1cccc(NC(=O)COc2ccc([N+](=O)[O-])cc2)c1	inconclusive: 14.6 µM [inhibitor, single point]	–
COc1ccc(NC(=O)C(C)Sc2nnc3c4c(nc(-c5ccc(OC)cc5)n23)CC(C)(C)OC4)cc1 (stereo not given)	inconclusive: 5.8 µM [inhibitor, single point]	–
COC(=O)c1sccc1NC(=O)/C=C\c1ccc(Cl)cc1Cl	inconclusive: 20.6 µM [activator, partial curve]	–
COc1ccc(C(=O)N(C)CCCC2CCCC2)cc1OC1CCN(C(C)C)CC1	–	inactive: -1.73%
COCCCn1c(SCC(=O)Nc2ccc(C)cc2)nc2ccccc2c1=O	inconclusive: 16.4 µM [activator, single point]	–
COc1ccc(OCC(=O)Nc2c(C(=O)N(CCN(C)C)Cc3ccco3)oc3ccccc23)cc1	inconclusive: 23.1 µM [inhibitor, single point]	–
CC(=O)NCCC1CCN(C(=O)C2CCC(=O)N(C3CCCC3)C2)CC1 (stereo not given)	–	inactive: 2.21%
O=S(=O)(Nc1ccccc1O)c1cccc2cccnc12	inconclusive: 23.1 µM [inhibitor, partial curve, poor fit]	–
O=C(CSc1nnc(NC(=O)c2ccc(F)cc2)s1)NC1CC1	inconclusive: 20.6 µM [activator, partial curve]	–
CCCCCCN(C(=O)CCCCCN1C(=O)NC(c2ccc(-c3ccccc3)cc2)C(C(=O)OCc2ccccc2)=C1C)C(C)C(=O)NCCCC (stereo not given)	inconclusive: 29.1 µM [inhibitor, single point]	–
O=C(Nc1ccc(-c2cn3c(n2)SCC3)cc1)c1ccc2c(c1)OCO2	inconclusive: 25.9 µM [inhibitor, single point]	–
Cc1nnc(NC(=O)CC23CC4CC(CC(C4)C2)C3)s1	–	inactive: 1.03%

Entries of single compounds as entered above. Order of values: Potency	activity change, negative = inhibition
CC(C)Nc1ncnc2c1cnn2-c1ccccc1 is entered as inconclusive: 0.731 µM [activator, full curve]	–
CCCOC(=O)c1cccc(NC(=O)COc2ccc([N+](=O)[O-])cc2)c1 is entered as inconclusive: 14.6 µM [inhibitor, single point]	–
O=C(CSc1ccc(F)cc1)Nc1ccccc1Br is entered as inconclusive: 23.1 µM [activator, single point]	–
CC1(C)CC(=O)C2=C(C1)OC1=C(C(=O)CC(C)(C)C1)C2c1ccc(O)c([N+](=O)[O-])c1 is entered as inconclusive: 29.1 µM [activator, single point]	–

The list continues:

Structure (SMILES)	Potency	activity change, negative = inhibition
CCOC(=O)c1nn(-c2ccccc2)c(C(=O)OCC)c1N	–	inactive: 3.26%
CC(C)c1nc2sc3c(NCc4ccccc4)ncnc3c2c2c1COC(C)(C)C2	inconclusive: 25.9 µM [inhibitor, single point]	–
O=C(O)CNC(=O)CC1S/C(=N/N=C/c2ccccc2O)NC1=O (stereo not given)	–	inactive: 11%
O=C(NC1CCCc2ccccc21)c1cn2ccccc2n1 (stereo not given)	inconclusive: 16.4 µM [activator, partial curve, poor fit]	–
COc1ccccc1OCC(=O)c1[nH]c(C)c(C(C)=O)c1C	inconclusive: 11.2 µM [inhibitor, single point]	–
Cc1nn(-c2ccccc2)c(Cl)c1/C=N/NC(=O)c1cccnc1	inconclusive: 16.4 µM [activator, single point]	–
Cc1cccc(-c2noc(CN(C)C(=O)c3ccco3)n2)c1	inconclusive: 29.1 µM [activator, single point]	–
Oc1sc(C=Nc2ccccc2)c2ccccc12	inconclusive: 7.31 µM [activator, partial curve]	–
COc1ccccc1C(=O)COC(=O)/C=C/c1ccccc1	inconclusive: 20.6 µM [activator, partial curve]	–
CCN(CC)c1ccc(S(=O)(=O)N2CCCCC2)cc1NC(=O)C1=COCCO1	inconclusive: 20.6 µM [inhibitor, partial curve, poor fit]	–
CN(CC(=O)Nc1ccc(Cl)cc1)C(=O)C1CCCC1	inconclusive: 18.3 µM [activator, partial curve, poor fit]	–
COc1ccc(Nc2cc(C)nc(N3CCN(C(=O)c4ccc5c(c4)OCO5)CC3)n2)cc1	inconclusive: 23.1 µM [inhibitor, partial curve, poor fit]	–
CC(C)(C)C(=O)OCc1nc(-c2ccc(Cl)cc2)cs1	inconclusive: 16.4 µM [activator, single point]	–
Cc1cc2nc(-c3ccc(SCC(=O)Nc4ccc(S(=O)(=O)N5CCCC5)cc4)nc3)[nH]c2cc1C	inconclusive: 2.59 µM [activator, full curve]	–
CCN(CC)CCn1c(NCc2ccc(C)o2)nc2ccccc21	–	inactive: -22.1%
CNC(=S)N(Cc1cccs1)Cc1cc2ccc(OC)cc2[nH]c1=O	inconclusive: 13 µM [inhibitor, partial curve, poor fit]	–
COCCNC(=O)C(Cc1c[nH]c2ccccc12)NC(=O)OCc1ccccc1 (stereo not given)	–	inactive: -2.09%
O=C(CCC1CCCN(C(=O)c2ccsc2)C1)N1CCN(c2ccccn2)CC1 (stereo not given)	inconclusive: 18.3 µM [inhibitor, partial curve]	–
O=C(NC(=S)Nc1ccccc1[N+](=O)[O-])c1ccccc1Cl	inconclusive: 23.1 µM [activator, partial curve]	–
CCOc1ccc(S(=O)(=O)N2CCCCC2)cc1NC(=O)C1COc2ccccc2O1 (stereo not given)	inconclusive: 14.6 µM [inhibitor, partial curve, poor fit]	–
Cc1ccc(NC(=O)CN(C)CC(=O)Nc2sc3c(c2C(N)=O)CCC3)cc1	inconclusive: 23.1 µM [inhibitor, single point]	–
